Measured values reported in patent EP3445348B1, “FLUORESCENT COMPOUNDS, PRODUCTION METHODS AND USES THEREOF” (Universidade de Aveiro, priority 2016, dated 2017).

System: HeLa cells
Assay: Confocal microscopy of uptake and subcellular distribution in HeLa cells, co-localization with Syntaxin-6 and DAPI
Format: cell-based, human
Conditions: 1h, 1-2×10^-5 mol.L^-1, co-localization with Syntaxin-6 and DAPI
Source text: […]

| SMILES | subcellular localization |
| --- | --- |
| CN(C)c1ccc(/C=C2\CCC/C(=C\c3ccc(N(C)C)c(Cl)c3)C2=O)cc1Cl [cyclic-Cl, (2E,6E)-2,6-bis[3-chloro-4-(dimethylamino)benzylidene]cyclohexanone] | initially localize more abundantly at the Golgi region and further on also at the nucleus |
| CN(C)c1ccc(/C=C/C(=O)/C=C/c2ccc(N(C)C)cc2)cc1 [linear-H, (1E,4E)-1,5-bis[4-(dimethylamino)phenyl]penta-1,4-dien-3-one] | initially localize more abundantly at the Golgi region and further on also at the nucleus |
